Publication PMC3828182
No constants are given. Whether binding was seen depends on the method and setting. In cells and extracts the contact can be indirect. These calls come from enrichment with a bait or labelling near it, and not all partners need be listed. A no says only that the protein was not detected with the bait. Sequences can lack the tags named with a protein.

Chains of the proteins cited; added tags and fusions are not shown.
UniProt Q9Y2L5: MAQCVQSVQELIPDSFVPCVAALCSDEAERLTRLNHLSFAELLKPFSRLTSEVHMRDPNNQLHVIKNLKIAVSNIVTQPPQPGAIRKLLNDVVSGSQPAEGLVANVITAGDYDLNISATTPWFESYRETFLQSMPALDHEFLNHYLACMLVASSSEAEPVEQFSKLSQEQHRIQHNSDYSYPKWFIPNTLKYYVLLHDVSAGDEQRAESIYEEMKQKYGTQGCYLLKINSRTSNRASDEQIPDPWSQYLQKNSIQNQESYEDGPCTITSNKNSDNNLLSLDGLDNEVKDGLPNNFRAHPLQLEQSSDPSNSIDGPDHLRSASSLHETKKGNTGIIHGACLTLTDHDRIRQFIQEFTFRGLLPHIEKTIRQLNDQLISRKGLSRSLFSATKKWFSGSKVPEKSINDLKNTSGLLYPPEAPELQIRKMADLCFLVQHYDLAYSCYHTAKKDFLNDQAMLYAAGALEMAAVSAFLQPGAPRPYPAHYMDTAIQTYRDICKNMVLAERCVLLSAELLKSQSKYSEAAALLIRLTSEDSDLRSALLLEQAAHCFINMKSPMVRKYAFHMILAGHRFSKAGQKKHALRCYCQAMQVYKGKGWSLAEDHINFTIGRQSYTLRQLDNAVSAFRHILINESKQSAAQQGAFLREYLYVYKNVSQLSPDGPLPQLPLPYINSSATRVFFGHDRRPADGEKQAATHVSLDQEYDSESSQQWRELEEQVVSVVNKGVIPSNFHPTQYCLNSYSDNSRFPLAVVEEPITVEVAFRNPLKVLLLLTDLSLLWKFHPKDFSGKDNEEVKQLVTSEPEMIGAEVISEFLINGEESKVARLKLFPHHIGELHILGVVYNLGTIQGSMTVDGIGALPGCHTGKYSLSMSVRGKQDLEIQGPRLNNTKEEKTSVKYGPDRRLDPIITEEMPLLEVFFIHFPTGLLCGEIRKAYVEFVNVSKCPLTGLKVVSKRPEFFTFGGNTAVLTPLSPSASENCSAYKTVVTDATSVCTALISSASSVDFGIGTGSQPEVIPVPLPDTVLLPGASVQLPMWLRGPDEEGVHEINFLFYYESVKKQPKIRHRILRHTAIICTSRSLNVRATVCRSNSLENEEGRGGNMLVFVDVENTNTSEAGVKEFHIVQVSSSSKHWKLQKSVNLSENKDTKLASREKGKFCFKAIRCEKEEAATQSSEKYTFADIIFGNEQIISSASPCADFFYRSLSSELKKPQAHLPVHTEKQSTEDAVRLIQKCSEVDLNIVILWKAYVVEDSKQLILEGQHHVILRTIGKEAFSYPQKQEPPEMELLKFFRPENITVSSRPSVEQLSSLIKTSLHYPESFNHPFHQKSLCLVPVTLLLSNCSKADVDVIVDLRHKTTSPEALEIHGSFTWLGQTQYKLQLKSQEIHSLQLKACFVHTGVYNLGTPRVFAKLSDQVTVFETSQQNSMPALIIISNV

Biological target: T1, FLAG-tagged HPV51 Nu strain L2 (51NuL2-FLAG) (human papillomavirus type 51, Nu strain) (UniProt P26539)
T1 sequence: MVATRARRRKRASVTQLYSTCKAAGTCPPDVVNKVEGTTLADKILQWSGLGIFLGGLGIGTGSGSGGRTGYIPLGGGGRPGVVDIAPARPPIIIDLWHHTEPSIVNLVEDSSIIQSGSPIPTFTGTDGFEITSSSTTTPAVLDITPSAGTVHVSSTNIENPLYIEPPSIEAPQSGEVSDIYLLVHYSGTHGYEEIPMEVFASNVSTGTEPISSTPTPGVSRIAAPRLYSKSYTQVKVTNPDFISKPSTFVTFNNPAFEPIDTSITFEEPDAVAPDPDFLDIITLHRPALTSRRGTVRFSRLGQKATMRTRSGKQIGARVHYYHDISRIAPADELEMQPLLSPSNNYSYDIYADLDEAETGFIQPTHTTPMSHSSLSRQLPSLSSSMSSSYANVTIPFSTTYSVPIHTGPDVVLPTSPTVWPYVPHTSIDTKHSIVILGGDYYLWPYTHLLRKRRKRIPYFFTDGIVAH
Experiment: affinity purification with mass spectrometry; anti-FLAG precipitates of 51MaL2-FLAG and 51NuL2-FLAG from HEK293FT lysates compared on a SYPRO Ruby-stained SDS gel; the 150-kDa band excised, digested with trypsin, MALDI-QIT-TOF MS, Mascot

For “transport protein particle complex subunit 8 (TRAPPC8) (from UniProt Q9Y2L5 1-1435)”, the binding was “no binding”.
